Test results taken from patent publication US7265132B2, “Compounds useful as reversible inhibitors of cysteine proteases” (Boehringer Ingelheim Pharmaceuticals Inc., priority 1999, dated 2007).
Some entries share one result that the patent states for a list of compounds. At least one structure is not confirmed: it was looked up by name or label, or the drawing left a doubt.

The chains behind the UniProt entries cited, without tags or fusion partners. Residues count along the entry.
UniProt P25774, 115-331: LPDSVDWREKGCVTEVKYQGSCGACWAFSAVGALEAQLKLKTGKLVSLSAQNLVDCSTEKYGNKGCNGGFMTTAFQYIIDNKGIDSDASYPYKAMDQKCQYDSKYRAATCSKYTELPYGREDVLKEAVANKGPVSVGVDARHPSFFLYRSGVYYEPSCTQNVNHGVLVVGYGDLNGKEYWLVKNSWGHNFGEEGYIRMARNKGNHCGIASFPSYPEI

These compounds were tested against T1, Cathepsin S (Homo sapiens, UniProt P25774) (assay: Inhibition of Cathepsin S in a cell based assay (Riese et al., Immunity 1996)). Settings: compounds of formulas (I) and (II).
T1 construct: endogenous in cells

Concentration at which potent inhibition of Cathepsin S in a cell based assay was demonstrated, ≤ 15 µM:
C[C@H]1CC[C@@H](N2CCC(C#N)(NC(=O)C(CC3CCCCC3)NC(=O)N3CCOCC3)C2)CC1 (relative stereo) [Morpholine-4-carboxylic acid {1-[3-cyano-1-(cis-4-methyl-cyclohexyl)-pyrrolidin-3-ylcarbamoyl]-2-cyclohexyl-ethyl}-amide]
CC(C)(C)CC(NC(=O)N1CCOCC1)C(=O)NC1(C#N)CCN([C@H]2CC[C@@H](C)CC2)C1 (relative stereo) [Morpholine-4-carboxylic acid {1-[3-cyano-1-(cis-4-methyl-cyclohexyl)-pyrrolidin-3-ylcarbamoyl]-3,3-dimethyl-butyl}-amide]
C[C@H]1CC[C@H](N2CCC(C#N)(NC(=O)C(CC3CCCCC3)NC(=O)N3CCOCC3)C2)CC1 (relative stereo) [Morpholine-4-carboxylic acid {1-[3-cyano-1-(trans-4-methyl-cyclohexyl)-pyrrolidin-3-ylcarbamoyl]-2-cyclohexyl-ethyl}-amide]
CC(C)(C)CC(NC(=O)N1CCOCC1)C(=O)NC1(C#N)CCN([C@H]2CC[C@H](C)CC2)C1 (relative stereo) [Morpholine-4-carboxylic acid {1-[3-cyano-1-(trans-4-methyl-cyclohexyl)-pyrrolidin-3-ylcarbamoyl]-3,3-dimethyl-butyl}-amide]
CC1CC(C#N)(NC(=O)[C@H](CC(C)(C)C)NC(=O)N2CCOCC2)CCN1C (single isomer, unassigned) [Example 60, Morpholine-4-carboxylic acid [1-(4-cyano-1,2-dimethyl-piperidin-4-ylcarbamoyl)-3,3-dimethyl-butyl]-amide]
N#CC1(NC(=O)[C@H](CC2CCCCC2)NC(=O)N2CCOCC2)CCN(CC2CC2)C1 (single isomer, unassigned) [Example 62, Morpholine-4-carboxylic acid [1-(3-cyano-1-cyclopropylmethyl-pyrrolidin-3-ylcarbamoyl)-2-cyclohexyl-ethyl]-amide]
CC1(C)CC(=O)C=C(N2CCC(C#N)(NC(=O)[C@H](CC3CCCCC3)NC(=O)N3CCOCC3)C2)C1 (stereo in doubt) [Example 68, Morpholine-4-carboxylic acid {1-[3-cyano-1-(5,5-dimethyl-3-oxo-cyclohex-1-enyl)-pyrrolidin-3-ylcarbamoyl]-2-cyclohexyl-ethyl}-amide]
N#C[C@]1(NC(=O)[C@H](CC2CCCCC2)NC(=O)N2CCOCC2)CCNC1 (stereo in doubt) [Example 71, Morpholine-4-carboxylic acid [1-(3-cyano-pyrrolidin-3-ylcarbamoyl)-2-cyclohexyl-ethyl]-amide]
CC(C)(CN1CC[C@](C#N)(NC(=O)[C@H](CC2CCCCC2)NC(=O)N2CCOCC2)C1)c1ccccc1 (stereo in doubt) [Example 72, Morpholine-4-carboxylic acid {1-[3-cyano-1-(2-methyl-2-phenyl-propyl)-pyrrolidin-3-ylcarbamoyl]-2-cyclohexyl-ethyl}-amide]
COC(=O)C1N(Cc2ccccc2)CCC1(C#N)NC(=O)C(CC1CCCCC1)NC(=O)N1CCOCC1 (stereo not drawn) [1-Benzyl-3-cyano-3-{3-cyclohexyl-2-[(morpholine-4-carbonyl)-amino]-propionylamino}-pyrrolidine-2-carboxylic acid methyl ester]
CC(C)(C)CC(NC(=O)c1c[nH]cn1)C(=O)NC1(C#N)CCN(Cc2ccccc2)C1 (stereo not drawn) [1H-Imidazole-4-carboxylic acid [1-(1-benzyl-3-cyano-pyrrolidin-3-ylcarbamoyl)-3,3-dimethyl-butyl]-amide]
CCCN1CCC(C#N)(NC(=O)C(CC(C)(C)C)NC(=O)Cc2cccs2)CC1 (stereo not drawn) [4,4-dimethyl-2-(2-thiophen-2-yl-acetylamino)-pentanoic acid (4-cyano-1-propyl-piperidin-4-yl)-amide]
CN1CCC(C#N)(NC(=O)C(CC2CCCCC2)NC(=O)c2ccc(Cl)cc2F)CC1 (stereo not drawn) [4-Chloro-N-[1-(4-cyano-1-methyl-piperidin-4-ylcarbamoyl)-2-cyclohexyl-ethyl]-2-fluoro-benzamide]
CN1CCC(C#N)(NC(=O)C(CC2CCCCC2)NC(=O)c2ccc(Cl)cc2)CC1 (stereo not drawn) [4-Chloro-N-[1-(4-cyano-1-methyl-piperidin-4-ylcarbamoyl)-2-cyclohexyl-ethyl]-benzamide]
CCCN1CCC(C#N)(NC(=O)C(CC(C)(C)C)NC(=O)c2ccc(Cl)cc2)CC1 (stereo not drawn) [4-Chloro-N-[1-(4-cyano-1-propyl-piperidin-4-ylcarbamoyl)-3,3-dimethyl-butyl]-benzamide]
CCOC(=O)N1CCC(C#N)(NC(=O)C(CC2CCCCC2)NC(=O)N2CCN(C)CC2)CC1 (stereo not drawn) [4-Cyano-4-{3-cyclohexyl-2-[(4-methyl-piperazine-1-carbonyl)-amino]-propionylamino}-piperidine-1-carboxylic acid ethyl ester]
N#CC1(NC(=O)C(CC2CCCCC2)NC(=O)c2ccc(Cl)s2)CCN(Cc2ccccc2)C1 (stereo not drawn) [5-Chloro-thiophene-2-carboxylic acid [1-(1-benzyl-3-cyano-pyrrolidin-3-ylcarbamoyl)-2-cyclohexyl-ethyl]-amide]
CN1CCC(C#N)(NC(=O)C(CC2CCCCC2)NC(=O)c2ccc(Cl)s2)CC1 (stereo not drawn) [5-Chloro-thiophene-2-carboxylic acid [1-(4-cyano-1-methyl-piperidin-4-ylcarbamoyl)-2-cyclohexyl-ethyl]-amide]
N#CC1(NC(=O)C(CC2CCCCC2)NC(=O)C2CCCCC2)CCN(Cc2ccccc2)C1 (stereo not drawn) [Cyclohexanecarboxylic acid [1-(1-benzyl-3-cyano-pyrrolidin-3-ylcarbamoyl)-2-cyclohexyl-ethyl]-amide]
CN1CCC(C#N)(NC(=O)C(CC2CCCCC2)NC(=O)N2CCOCC2)CC1 (stereo not drawn) [Example 1, Morpholine-4-carboxylic acid [1-(4-cyano-1-methyl-piperidin-4-ylcarbamoyl)-2-cyclohexyl-ethyl]-amide]
N#CC1(NC(=O)C(CC2CCCCC2)NC(=O)N2CCOCC2)CCOCC1 (stereo not drawn) [Example 2, Morpholine-4-carboxylic acid [1-(4-cyano-tetrahydro-pyran-4-ylcarbamoyl)-2-cyclohexyl-ethyl]-amide]
CCOC(=O)N1CCC(C#N)(NC(=O)C(CC2CCCCC2)NC(=O)N2CCOCC2)CC1 (stereo not drawn) [Example 3, 4-Cyano-4-{3-cyclohexyl-2-[(morpholine-4-carbonyl)-amino]-propionylamino}-piperidine-1-carboxylic acid ethyl ester]
N#CC1(NC(=O)C(CC2CCCCC2)NC(=O)N2CCOCC2)CCN(CCc2ccccc2)CC1 (stereo not drawn) [Example 4, Morpholine-4-carboxylic acid [1-(4-cyano-1-phenethyl-piperidin-4-ylcarbamoyl)-2-cyclohexyl-ethyl]-amide]
N#CC1(NC(=O)C(CC2CCCCC2)NC(=O)N2CCOCC2)CCN(Cc2ccccc2)CC1 (stereo not drawn) [Example 5, Morpholine-4-carboxylic acid [1-(1-benzyl-4-cyano-piperidin-4-ylcarbamoyl)-2-cyclohexyl-ethyl]-amide]
CCCN1CCC(C#N)(NC(=O)C(CC2CCCCC2)NC(=O)N2CCOCC2)CC1 (stereo not drawn) [Example 6, Morpholine-4-carboxylic acid [1-(4-cyano-1-propyl-piperidin-4-ylcarbamoyl)-2-cyclohexyl-ethyl]-amide]
N#CC1(NC(=O)C(CC2CCCCC2)NC(=O)N2CCOCC2)CCN(C(=O)OCc2ccccc2)CC1 (stereo not drawn) [Example 7, 4-Cyano-4-{3-cyclohexyl-2-[(morpholine-4-carbonyl)-amino]-propionylamino}-piperidine-1-carboxylic acid benzyl ester]
N#CC1(NC(=O)C(CC2CCCCC2)NC(=O)N2CCOCC2)CCSCC1 (stereo not drawn) [Example 8, Morpholine-4-carboxylic acid [1-(4-cyano-tetrahydro-thiopyran-4-ylcarbamoyl)-2-cyclohexyl-ethyl]-amide]
CC(=O)N1CCC(C#N)(NC(=O)C(CC2CCCCC2)NC(=O)N2CCOCC2)CC1 (stereo not drawn) [Example 12, Morpholine-4-carboxylic acid [1-(1-acetyl-4-cyano-piperidin-4-ylcarbamoyl)-2-cyclohexyl-ethyl]-amide]
CC(C)(C)CC(NC(=O)N1CCOCC1)C(=O)NC1(C#N)CCN(Cc2ccccc2)CC1 (stereo not drawn) [Example 15, Morpholine-4-carboxylic acid [1-(1-benzyl-4-cyano-piperidin-4-ylcarbamoyl)-3,3-dimethyl-butyl]-amide]
CC(C)N1CCC(C#N)(NC(=O)C(CC(C)(C)C)NC(=O)N2CCOCC2)CC1 (stereo not drawn) [Example 16, Morpholine-4-carboxylic acid [1-(1-isopropyl-4-cyano-piperidin-4-ylcarbamoyl)-3,3-dimethyl-butyl]-amide]
